Data as given in PubChem BioAssay AID1224830 (NIAID, 2016)

Screen: 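Host factors that control LPS-induced TNF expression in human macrophages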 (primary screen)
System: human THP-1 monocytic leukaemia cells, TNF dual-luciferase reporter clone, PMA-differentiated to macrophage-like cells
Reagents: siRNA pool against human genes, 50 nM
Time to read-out: LPS for 4 h, given about 3 days after siRNA transfection
Conditions: bacterial LPS (TLR4 ligand), 10 ng/ml
Measurement: 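TNF firefly reporter luminescence divided by renilla, normalised to the plate median, then turned into a robust z-score for each replicate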
Reading the numbers: TNF reporter robust z-score: higher = stronger TNF reporter response to LPS
Rule for the call: 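Each well counts as active if its z-score is over 2.8 or under -1.5; controls are left without a call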
The deposit covers about 18,000 reagents; shown is a part drawn at random. Of all reagents, about 2,900 (16%) were called active. 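Calls are made per well; low scores hint the gene aids the LPS response, high scores that it dampens it.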 Repeated entries: four replicate wells of each siRNA pool. No sequences are given here.

no.	Gene	TNF reporter robust z-score	Outcome
1	FARP2 (GeneID 9855)	1.04	inactive
2	FARP2 (GeneID 9855)	0.88	inactive
3	FARP2 (GeneID 9855)	0.43	inactive
4	FARP2 (GeneID 9855)	0.27	inactive
5	COL9A1 (GeneID 1297)	-0.55	inactive
6	COL9A1 (GeneID 1297)	-0.86	inactive
7	COL9A1 (GeneID 1297)	-0.42	inactive
8	COL9A1 (GeneID 1297)	-0.22	inactive
9	HTR3A (GeneID 3359)	-0.62	inactive
10	HTR3A (GeneID 3359)	-0.3	inactive
11	HTR3A (GeneID 3359)	-1.48	inactive
12	HTR3A (GeneID 3359)	-1.17	inactive
13	CEP43 (GeneID 11116)	0.03	inactive
14	CEP43 (GeneID 11116)	0.18	inactive
15	CEP43 (GeneID 11116)	0.86	inactive
16	CEP43 (GeneID 11116)	1.08	inactive
17	PGLS (GeneID 25796)	0	inactive
18	PGLS (GeneID 25796)	1.92	inactive
19	PGLS (GeneID 25796)	0.7	inactive
20	PGLS (GeneID 25796)	0.27	inactive
21	SFTPD (GeneID 6441)	0.19	inactive
22	SFTPD (GeneID 6441)	-1.26	inactive
23	SFTPD (GeneID 6441)	-0.1	inactive
24	ANKHD1 (GeneID 54882)	1.89	inactive
25	ANKHD1 (GeneID 54882)	1.63	inactive
26	ANKHD1 (GeneID 54882)	0.52	inactive
27	ANKHD1 (GeneID 54882)	1.37	inactive
28	MDN1 (GeneID 23195)	-0.83	inactive
29	MDN1 (GeneID 23195)	-0.38	inactive
30	MDN1 (GeneID 23195)	-0.73	inactive
31	MDN1 (GeneID 23195)	-0.35	inactive
32	CDPF1 (GeneID 150383)	0.92	inactive
33	CDPF1 (GeneID 150383)	1.52	inactive
34	CDPF1 (GeneID 150383)	0.83	inactive
35	CDPF1 (GeneID 150383)	1.34	inactive
36	CDC123 (GeneID 8872)	-0.63	inactive
37	CDC123 (GeneID 8872)	0.8	inactive
38	CDC123 (GeneID 8872)	0.36	inactive
39	CDC123 (GeneID 8872)	-0.25	inactive
40	FOXE1 (GeneID 2304)	-0.97	inactive
41	FOXE1 (GeneID 2304)	-0.48	inactive
42	FOXE1 (GeneID 2304)	-0.75	inactive
43	TMSB4XP8 (GeneID 7117)	-1.73	active
44	TMSB4XP8 (GeneID 7117)	-1.81	active
45	TMSB4XP8 (GeneID 7117)	-1.77	active
46	TMSB4XP8 (GeneID 7117)	-1.35	inactive

Records listed so far whose gene name begins with F or f:
Gene	TNF reporter robust z-score	Outcome
FARP2 (GeneID 9855)	1.04	inactive
FARP2 (GeneID 9855)	0.88	inactive
FARP2 (GeneID 9855)	0.43	inactive
FARP2 (GeneID 9855)	0.27	inactive
FOXE1 (GeneID 2304)	-0.97	inactive
FOXE1 (GeneID 2304)	-0.48	inactive
FOXE1 (GeneID 2304)	-0.75	inactive
